Source: publication PMC12789345
No constants are given. Whether binding was seen depends on the method and setting. Binding seen in cells or lysates may run through a third protein. Some entries that bind do so weakly or less than the wild type.

The chains behind the UniProt entries cited, without tags or fusion partners.
UniProt Q04207: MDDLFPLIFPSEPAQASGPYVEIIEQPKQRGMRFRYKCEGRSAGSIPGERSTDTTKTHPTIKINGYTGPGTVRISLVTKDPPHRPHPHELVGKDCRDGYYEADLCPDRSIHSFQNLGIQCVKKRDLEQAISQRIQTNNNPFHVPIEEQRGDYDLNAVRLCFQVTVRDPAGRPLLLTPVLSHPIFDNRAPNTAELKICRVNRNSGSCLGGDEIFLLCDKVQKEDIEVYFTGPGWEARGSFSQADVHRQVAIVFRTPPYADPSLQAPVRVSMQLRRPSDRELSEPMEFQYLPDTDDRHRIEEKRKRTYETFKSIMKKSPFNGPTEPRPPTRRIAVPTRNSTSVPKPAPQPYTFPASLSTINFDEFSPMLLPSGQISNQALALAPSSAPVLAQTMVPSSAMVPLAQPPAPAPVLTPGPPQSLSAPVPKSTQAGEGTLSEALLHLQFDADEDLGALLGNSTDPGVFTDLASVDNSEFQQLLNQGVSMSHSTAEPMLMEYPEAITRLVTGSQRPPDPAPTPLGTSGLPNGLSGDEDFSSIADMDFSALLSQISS

Target: NF-κB p65 (mouse (endogenous in spinal cord NSCs of newborn C57BL/6 mice)) (UniProt Q04207)
Assay: co-IP; NSC lysates immunoprecipitated with anti-NF-κB p65 antibody on protein A+G magnetic beads, 4°C overnight, blotted for Keap1 and Nrf2; normal rabbit IgG as negative control

B1: Nuclear transcription factor erythroid-2 related factor 2 (Nrf2) (protein, UniProt Q60795 1-597)
chain: MMDLELPPPGLQSQQDMDLIDILWRQDIDLGVSREVFDFSQRQKDYELEKQKKLEKERQEQLQKEQEKAFFAQFQLDEETGEFLPIQPAQHIQTDTSGSASYSQVAHIPKQDALYFEDCMQLLAETFPFVDDHESLALDIPSHAESSVFTAPHQAQSLNSSLEAAMTDLSSIEQDMEQVWQELFSIPELQCLNTENKQLADTTAVPSPEATLTEMDSNYHFYSSISSLEKEVGNCGPHFLHGFEDSFSSILSTDDASQLTSLDSNPTLNTDFGDEFYSAFIAEPSDGGSMPSSAAISQSLSELLDGTIEGCDLSLCKAFNPKHAEGTMEFNDSDSGISLNTSPSRASPEHSVESSIYGDPPPGFSDSEMEELDSAPGSVKQNGPKAQPAHSPGDTVQPLSPAQGHSAPMRESQCENTTKKEVPVSPGHQKAPFTKDKHSSRLEAHLTRDELRAKALHIPFPVEKIINLPVDDFNEMMSKEQFNEAQLALIRDIRRRGKNKVAAQNCRKRKLENIVELEQDLGHLKDEREKLLREKGENDRNLHLLKRRLSTLYLEVFSMLRDEDGKPYSPSEYSLQQTRDGNVFLVPKSKKPDTKKN
- binding: binds
